Test results as given in article PMC10235067, “Increased renal elimination of endogenous and synthetic pyrimidine nucleosides in concentrative nucleoside transporter 1 deficient mice” (Nature Communications, 2023).
Where “and” joins values, the source holds several entries; their conditions need not be identical. Equal values may be shown once. Non-standard residues stand in square brackets, D forms with d. Residues, ends and D or L forms follow the SMILES beside them. Hyp = O=C(O)[C@@H]1C[C@@H](O)CN1

These molecules were tested on CNT1 (assay: Untargeted metabolomics of Slc28a1-/- vs Slc28a1+/+ mouse urine (24 h, ad libitum)). Conditions: Slc28a1-/- / Slc28a1+/+.

Row | Molecule | Fold Change | log2(FC)
1 | CC1=NC(C)(C)CS1 [Thiazole, 4,5-dihydro-2,4,4-trimethyl-] | 3E-04 and 0.0003187 | -11.6 and -11.615
2 | COc1cc2cc[nH]c2cc1O[C@@H]1O[C@H](C(=O)O)[C@@H](O)[C@H](O)[C@H]1O [6-Hydroxy-5-methoxyindole glucuronide] | 32.653 | 5.0292
3 | C[C@]12CC[C@@H]3c4ccc(O)cc4C(=O)C[C@H]3[C@@H]1C[C@@H](O)[C@@H]2O [6-Ketoestriol] | 0.6645 | -0.5897
4 | CSCC[C@H](N)C(=O)O [L-Methionine] | 0.5434 | -0.8798
5 | C/C=C/C(=O)OC(C)(C)Cc1ccccc1 [Dimethylbenzyl carbinyl crotonate] | 45.402 | 5.5047
6 | C/C=C(\C)C(=O)NCC(=O)O [Tiglylglycine] | 4E-01 and 0.3848 | -1.4 and -1.3777
7 | Cn1c(=N)ccn([C@@H]2O[C@H](CO)[C@@H](O)[C@H]2O)c1=O [3-Methylcytidine] | 1.4174 | 0.5033
8 | CCCCCOC(=O)c1ccccc1O [Amyl salicylate] | 0.5439 | -0.8785
9 | Nc1nc(F)nc2c1ncn2[C@@H]1O[C@H](CO)[C@@H](O)[C@H]1O [2-Fluoroadenosine] | 0.6024 | -0.7311
10 | CC(C)C[C@H](NC(=O)C(C)O)C(=O)O (stereo partly drawn) [N-Lactoylleucine] | 0.4005 | -1.3201
11 | CC[C@H](C)[C@H](N)C(=O)N1C[C@H](O)C[C@H]1C(=O)O [Isoleucylhydroxyproline] (H-Ile-[Hyp]-OH) | 1.4078 | 0.4935
12 | CC(C)[C@H](N)C(=O)N[C@@H](CCCN=C(N)N)C(=O)O [Valyl-Arginine] (H-Val-Arg-OH) | 1.9277 | 0.9469
13 | CC/C=C/C=C/C=C\CC(=O)OC(CC(=O)[O-])C[N+](C)(C)C (stereo not drawn) [(3Z,5E,7E)-Decatrienoylcarnitine] | 2E+00 and 2.2575 | 1.2 and 1.1747
14 | CCC(O)CCC(=O)NCC(=O)O (stereo not drawn) [4-hydroxyhexanoylglycine] | 3E-01 and 0.3308 | -1.6 and -1.5962
15 | 1-hydroxyhexanoylglycine | 2E-01 and 0.1948 | -2.4 and -2.3603
16 | C[N+](C)(C)C[C@@H](CC(=O)[O-])OC(=O)CCCCCCCCCCCCCCC(=O)O [Hexadecanedioic acid mono-L-carnitine ester] | 37.25 | 5.2192
17 | O=C1CCCC(C2CC(CO)C3CC(O)CCN3C2)N1 (stereo not drawn) [6-[8-Hydroxy-1-(hydroxymethyl)octahydro-2H-quinolizin-3-yl]-2-piperidinone] | 8.603 | 3.1048
18 | CCC=CCC=CCO [2,5-Octadien-1-ol] | 0.07669 | -3.7049
19 | C[C@@H](O)[C@H](N)C(=O)N[C@H](C(=O)N[C@@H](CCCCN)C(=O)N[C@@H](CO)C(=O)O)[C@@H](C)O [thr-thr-lys-ser] (H-TTKS-OH) | 3.9891 | 1.9961
20 | CCCCC(O)C(=O)NCC(=O)O (stereo not drawn) [2-hydroxyhexanoylglycine] | 4E-01 and 0.4431 | -1.2 and -1.1742

Row | Molecule | Fold Change | log2(FC)
21 | CC1C(=O)C(=O)CC1(C)C (stereo not drawn) [3,4,4-Trimethyl-1,2-cyclopentanedione] | 4.0071 | 2.0026
22 | C[N+](C)(C)CC(CC(=O)[O-])OC(=O)CCCCCC=CCC(=O)O (stereo not drawn) [Dec-7-enedioylcarnitine] | 2.1023 | 1.072
23 | C[N+](C)(C)CC(CC(=O)[O-])OC(=O)CCCCCCCC=CC=CCC(=O)O (stereo not drawn) [Tetradeca-9,11-dienedioylcarnitine] | 9E+00 and 9.2286 | 3.2 and 3.2061
24 | O=C(O)c1cc2ccccc2[nH]1 [2-Indolecarboxylic acid] | 0.4561 | -1.1325
25 | trihydroxyflavone | 0.1272 | -2.9749
26 | C[C@H](N)C(=O)NCC(=O)N[C@@H](Cc1c[nH]c2ccccc12)C(=O)N[C@@H](CS)C(=O)O [ala-gly-trp-cys] (H-AGWC-OH) | 0.3812 | -1.3914
27 | NC(=O)CC(NC(=O)C(N)Cc1c[nH]c2ccccc12)C(=O)O (stereo not drawn) [Tryptophyl-Asparagine] (H-Trp-Asn-OH; configuration not given here) | 6E-02 and 0.06241 | -4.0 and -4.0022
28 | Cc1cn([C@H]2CC[C@@H](CO)O2)c(=O)[nH]c1=O [3'-Deoxythymidine] | 1.2839 | 0.3606
29 | CCCCCCC(O)CCCCC(O)CC(=O)OC(CC(=O)[O-])C[N+](C)(C)C (stereo not drawn) [3,8-Dihydroxytetradecanoylcarnitine] | 2E+02 and 197.61 | 7.6 and 7.6265
30 | O=C(O)[C@@H]1Cc2c([nH]c3ccccc23)CN1 [L-1,2,3,4-Tetrahydro-beta-carboline-3-carboxylic acid] | 0.7991 | -0.3236
31 | NC(CCC(=O)NC(CSC1C=Cc2cccc([N+](=O)[O-])c2C1O)C(=O)NCC(=O)O)C(=O)O (stereo not drawn) [1-Nitro-7-glutathionyl-8-hydroxy-7,8-dihydronaphthalene] | 3E-01 and 0.2846 | -1.8 and -1.8133
32 | C=C(C)C1CC(=O)C(C)=C(O)C1 (stereo not drawn) [2-Hydroxy-p-mentha-1,8-dien-6-one] | 3E+00 and 3.1916 | 1.7 and 1.6743
33 | Prostaglandin F-main urinary metabolite | 3E+03 and 2991.4 | 11.5 and 11.547
34 | C[C@]1(C(=O)O)CCC[C@]2(C)c3cc(O)ccc3CC[C@@H]12 [(+)-podocarpic acid] | 0.7291 | -0.4558
35 | CC(=O)N[C@@H](CSCCCO)C(=O)O [N-Acetyl-S-(3-hydroxypropyl)cysteine] | 4E-01 and 0.3529 | -1.5 and -1.5026
36 | Nc1ccn([C@H]2C=C[C@@H](CO)O2)c(=O)n1 [2',3'-Didehydro-2',3'-dideoxycytidine] | 0.4392 | -1.1871
37 | Nc1ccccc1C(=O)NCC(=O)O [2-Aminohippuric acid] | 5E-01 and 0.4532 | -1.1 and -1.1417
38 | CCCCCC=CC(=O)NCC(=O)O [2-octenoylglycine] | 0.4909 | -1.0264
39 | O=C(O)CCC(=O)OC[C@H]1O[C@@H](Oc2cc3c(O)cc(O)cc3[o+]c2-c2ccc(O)cc2)[C@H](O)[C@@H](O)[C@@H]1O [Pelargonidin 3-(6''-succinyl-glucoside)] | 0.001351 | -9.5315
40 | CC(Cc1ccccc1)Nc1ncnc2c1ncn2[C@@H]1O[C@H](CO)[C@@H](O)[C@H]1O (stereo partly drawn) [n6-phenylisopropyladenosine] | 2.3257 | 1.2176

Row | Molecule | Fold Change | log2(FC)
41 | hydroxycortisol | 377.01 | 8.5584
42 | O=C(OC[C@H]1OC(OCCc2ccccc2)[C@H](O)[C@@H](O)[C@@H]1O)c1cc(O)c(O)c(O)c1 (stereo partly drawn) [Phenethyl 6-galloylglucoside] | 1.4413 | 0.5274
43 | CC(=O)N1CCCC1C(=O)O (stereo not drawn) [N-Acetylproline] | 1.2077 | 0.2723
44 | CC=CC=CC=CCCCCC(=O)OC(CC(=O)[O-])C[N+](C)(C)C (stereo not drawn) [Dodeca-6,8,10-trienoylcarnitine] | 5.2723 | 2.3984
45 | C=CC=CC=O [2,4-Pentadienal] | 4E-01 and 0.4156 | -1.3 and -1.2669
46 | C=C1C(=O)OC2/C=C(\C)C(O)C/C=C(\C)CC(OC(=O)/C(C)=C\C)C12 (stereo not drawn) [3-Epinobilin] | 4E+02 and 443.23 | 8.8 and 8.7919
47 | COC(=O)[C@H](CC(C)C)NC(=O)[C@@H](N)CC(C)C [Leucylleucine methyl ester] | 13.262 | 3.7292
48 | N[C@@H](CCCCn1cccc1)C(=O)O [L-alpha-Amino-1H-pyrrole-1-hexanoic acid] | 7E+01 and 69.87 | 6.1 and 6.1266
49 | CC1=C(C)C(=O)CCC1 [2,3-Dimethyl-2-cyclohexen-1-one] | 9E-02 and 0.09193 | -3.4 and -3.4433
50 | NC(CCCCC(=O)O)C(=O)O (stereo not drawn) [2-Aminoheptanedioic acid] | 3E-01 and 0.289 | -1.8 and -1.7907
51 | CCCCSCCC(N)C(=O)O (racemic) [D,L-Buthionine] | 1.4986 | 0.5836
52 | Rivularine |  | -4.2 and -4.2176
53 | Nc1nc2c(ncn2[C@@H]2O[C@H](CO)[C@@H](O)[C@H]2O)c(=O)[nH]1 [Guanosine] | 2.0075 | 1.0054
54 | CC(C)[C@H](NC(=O)[C@H](CS)NC(=O)CN)C(=O)N[C@@H](CCCCN)C(=O)O [gly-cys-val-lys] (H-GCVK-OH) | 0.3981 | -1.3288
55 | CC(=O)Nc1ccn([C@@H]2O[C@H](CO)[C@@H](O)[C@H]2O)c(=O)n1 [N4-Acetylcytidine] | 1.3899 | 0.475
56 | CCCCC(=O)NCC(=O)O [Valerylglycine] | 0.5796 | -0.7869
57 | CC1=C(/C=C/C(C)=C/C=C/C(C)=C/C=C/C=C(\C)CCCO)C(C)(C)CC(O)C1 (stereo not drawn) [beta-Micropteroxanthin] | 19.067 | 4.253
58 | CC(=O)NC(CCS)C(=O)O (racemic) [N-Acetyl-DL-homocysteine] | 1E-01 and 0.1376 | -2.9 and -2.8614
59 | CC(=O)Nc1ccc(C(=O)NCC(=O)O)cc1 [4-Acetylaminohippuric acid] | 2.2958 | 1.199
60 | CCC1(CC)COC(=O)NC1=O [Diethadione] | 0.3094 | -1.6924

Same assay, conditions: Slc28a1-/- vs Slc28a1+/+

Row | Molecule | change of level in Slc28a1-/- mouse urine (untargeted metabolomics)
61 | Nc1ccn([C@@H]2O[C@H](CO)[C@@H](O)[C@H]2O)c(=O)n1 [cytidine] | no change
